Reference: patent US10849955B2, “Methods of treating pancreatic cancer using GPCR antagonists” (City of Hope, priority 2016, dated 2020)
At least one structure is not confirmed: it was looked up by name or label, or the drawing left a doubt.

System: EGFR
Test: EGFR phosphorylation in PANC-1 cells, Western blot kinetic study
Type: cell-based, human
Settings: 10 nM agonist(s), pEGFR over total EGFR
Method: To prepare protein extracts, cells were pelleted by centrifugation and washed twice in PBS. The pellet was resuspended in lysis buffer (50 mM Tris, pH 8.0, 150 mM sodium chloride, 1% NP-40, supplemented Protease and Phosphatase Inhibitor Mini Tablets, Pierce) and incubated on a rotator for 30 min at 4° C. Subsequently, the cells were pelleted by centrifugation at 10,000 rpm for 20 min at 4° C. The protein lysate (supernatant) was used immediately or stored at −80° C. Membrane proteins were isolated using the Mem-Per Plus Membrane protein isolation kit (Thermo Scientific) per the manufacturer′ instructions. Briefly, adherent cells were scraped and centrifuged for 5 min at 300×g. The cell pellet was washed 2 times using Cell Wash solution and centrifuged for 5 min at 300×g. The cell pellet was permeabilized using Permeabilization Buffer and incubated at 4° C. for 10 mins on a rotator. […] Proteins were detected with Pierce ECL detection reagents (Pierce). […]
Cells were treated with 10 nM Dermorphin [Y(D-ALA)FGYPKC; Genscript], 10 nM (1R,1′S,3′R/1R,1′R,3′S)-L-054,264 (Tocris) individually and in combination for the indicated times. […] Blots were imaged on film and quantified using the Image Lab software (Biorad). ERK1/2 and EGFR phosphorylation at each time point was quantified and normalized by calculating the ratio of pERK1/2 over total ERK1/2 and pEGFR over total EGFR in each lane. […]

C[C@@H](NC(=O)[C@@H](N)Cc1ccc(O)cc1)C(=O)N[C@@H](Cc1ccccc1)C(=O)NCC(=O)N[C@@H](Cc1ccc(O)cc1)C(=O)N1CCC[C@H]1C(=O)N[C@@H](CO)C(N)=O [dermorphin, Y(D-ALA)FGYPKC]
EGFR phosphorylation: induced significant EGFR phosphorylation
